For assay [1], the target named is human immunodeficiency virus 1 (HIV-1) (group M, subtype B, Isolate MN) gp120 Protein (HIV-1 (group M, subtype B, isolate MN)) (UniProt P05877). In words: co-IP; recombinant gp120 (5 µg/mL) added to lysate of HEK293T cells stably expressing TNFR2, 2 h 4 °C; anti-gp120 antibody or control rabbit IgG on Protein G Dynabeads overnight; blot with anti-TNFR2; only the target purified.

By UniProt entry, the sequences of proteins in these tests, tags left out. Residues count along the entry.
UniProt P20333, residues 23-461: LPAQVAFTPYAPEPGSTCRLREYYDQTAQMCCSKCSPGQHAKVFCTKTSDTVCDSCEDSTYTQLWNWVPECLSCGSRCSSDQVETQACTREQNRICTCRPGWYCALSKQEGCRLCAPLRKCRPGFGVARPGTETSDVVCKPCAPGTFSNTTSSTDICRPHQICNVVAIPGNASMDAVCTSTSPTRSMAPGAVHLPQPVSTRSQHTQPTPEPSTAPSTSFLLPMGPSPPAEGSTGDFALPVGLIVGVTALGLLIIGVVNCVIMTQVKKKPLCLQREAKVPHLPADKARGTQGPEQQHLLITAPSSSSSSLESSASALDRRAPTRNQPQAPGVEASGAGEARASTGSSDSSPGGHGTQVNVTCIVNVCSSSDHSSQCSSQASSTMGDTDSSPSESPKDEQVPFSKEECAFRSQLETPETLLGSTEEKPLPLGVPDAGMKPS

Assay [2] addresses TNFR2 stably expressed in HEK293T cells (293T-TNFR2) (human) (UniProt P20333). Briefly: flow cytometry on cells; gp120 on TNFR2-expressing 293T cells, alone or after pre-incubation of gp120 with VRC01; MFI; only the binder purified.
The target of assay [3] is CCR5 on CCR5+CD4- 293T cells (UniProt P51681). In words: flow cytometry on cells; only the binder purified.

No constants are given. Whether binding was seen depends on the method and setting. For part of these data: Binding seen in cells or lysates may run through a third protein. Some results given as binding are weak or reduced against the parent protein; the word gives no strength.

For the substance “TNFR2 stably expressed in HEK293T cells (293T-TNFR2) (from UniProt P20333 23-461) (receptor)”, the binding entry in assay [1] was “binds”.
In the case of “human immunodeficiency virus 1 (HIV-1) (group M, subtype B, Isolate MN) gp120 Protein (from UniProt P05877 30-513)”, the binding result in assay [2] and in assay [3] was “binds” in each case.

These data come from publication PMC13137973.
